PMC4081072, “Structure and semi-sequence-specific RNA binding of Nrd1”

Target: T1, Nrd1 307-491 WT (Saccharomyces cerevisiae) (UniProt P53617)
T1 sequence (looked up): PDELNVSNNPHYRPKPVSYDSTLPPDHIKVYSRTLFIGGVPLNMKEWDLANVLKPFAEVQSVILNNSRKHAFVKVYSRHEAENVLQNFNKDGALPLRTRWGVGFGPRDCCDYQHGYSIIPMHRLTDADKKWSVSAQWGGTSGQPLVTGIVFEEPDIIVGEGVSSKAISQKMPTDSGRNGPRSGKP
Test: fluorescence anisotropy
Settings: FA: 10 nM RNA, 50 mM sodium phosphate pH 8, 150 mM NaCl, 10 mM beta-mercaptoethanol, 20 C (protein stock in 300 mM NaCl); recombinant protein; residues 307-491; protein details: C-terminal His6; label: 5' fluorescein or TAMRA

CCCCCCC [C7]
Kd: > 500 µM

Protein sequences can lack the tags named with them.
